The exact form of at least one protein or probe is not confirmed. The comparison behind a weaker result is the experiment's own reference, which may not be listed here.
System: FANCD2 WT + FANCI
Test: EMSA
Conditions: CK2 phosphorylated, marked reduction vs mock; EMSA: 1 nM DNA, 25 mM Tris-HCl pH 7.5, 100 mM NaCl, 1 mM EDTA, 6% glycerol, 1 mM DTT, room temperature 1 h; 4% PAGE 0.4x TBE at 4 C; recombinant protein

CATTGTGAATTCGCCTCTCTGTCTAGCCGAAGCTCGAAACGATCTTGTGC / GTCCATCAAAGTTCGACTGTGCGGCTAGACAGAGAGGCGAATTCACAATG [ICL14 Y-shaped DNA]
binding result: binds more weakly

— PMC6581795, “Phosphorylation of FANCD2 Inhibits the FANCD2/FANCI Complex and Suppresses the Fanconi Anemia Pathway in the Absence of DNA Damage”
